Assay results taken from PMC3970133.
These are yes or no findings as the source states them, for the method shown. Binding seen in cells or lysates may run through a third protein. Some results given as binding are weak or reduced against the parent protein; the word gives no strength.

Amino acid sequences for entries named in this document (tags omitted).
UniProt P13202: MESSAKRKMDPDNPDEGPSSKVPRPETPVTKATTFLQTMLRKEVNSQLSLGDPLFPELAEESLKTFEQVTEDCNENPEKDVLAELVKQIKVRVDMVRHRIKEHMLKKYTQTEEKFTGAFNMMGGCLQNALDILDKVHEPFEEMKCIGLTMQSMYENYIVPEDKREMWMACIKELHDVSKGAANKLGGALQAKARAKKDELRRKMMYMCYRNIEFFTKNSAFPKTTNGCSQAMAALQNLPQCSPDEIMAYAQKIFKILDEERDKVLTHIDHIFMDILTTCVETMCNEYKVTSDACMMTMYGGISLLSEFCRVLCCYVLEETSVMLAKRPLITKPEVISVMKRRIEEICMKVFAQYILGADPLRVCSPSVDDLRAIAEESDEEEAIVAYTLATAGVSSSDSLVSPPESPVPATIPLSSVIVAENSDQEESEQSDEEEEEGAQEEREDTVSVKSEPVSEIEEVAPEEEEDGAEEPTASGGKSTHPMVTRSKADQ
UniProt Q06609: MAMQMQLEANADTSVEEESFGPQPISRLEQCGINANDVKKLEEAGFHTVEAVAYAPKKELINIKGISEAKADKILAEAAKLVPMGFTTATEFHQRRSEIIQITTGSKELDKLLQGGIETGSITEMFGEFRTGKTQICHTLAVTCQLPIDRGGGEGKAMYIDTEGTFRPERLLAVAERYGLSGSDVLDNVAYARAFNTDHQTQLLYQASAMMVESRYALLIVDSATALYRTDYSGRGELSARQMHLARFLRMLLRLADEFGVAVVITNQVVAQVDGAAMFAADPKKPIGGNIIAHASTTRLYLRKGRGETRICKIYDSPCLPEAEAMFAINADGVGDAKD

Molecular target: GST-IE72 (pGEX72), HCMV IE1-72 (human cytomegalovirus (HCMV)) (UniProt P13202)
Experiment: pull-down; only the target purified

## Rad51 (from UniProt Q06609 1-339)
  binding: binds
